Source: patent publication US20260265392A1
Results are given in words; binding and its absence hold for the method and conditions named. Some entries that bind do so weakly or less than the wild type.

Target: recombinant protein (SUM)5-TRAIL
Assay: laser confocal imaging of SJSA-1 cells with (SIM)6-R4L (Red) and (SUM)5-TRAIL (Green), 100 nM each (combination 3, FIG. 2C); co-localization

B1: recombinant protein (SIM)6-R4L (ligand)
chain: MKHHHHHHHENLYFQGAMSSKVDVIDLTIESSSDEEEDPPAKRGGSGGSGGSGGSKVDVIDLTIESSSDEEEDPPAKRGGSGGSGGSGGSKVDVIDLTIESSSDEEEDPPAKRGAMKGGSGGSGGSGGSMSSKVDVIDLTIESSSDEEEDPPAKRGGSVGSGGSGGSKVDVIDLTIESSSDEEEDPPAKRGGSGGSGGRGGSKVDVIDLTIESSSDEEEDPPAKRGAMRCWGGSGGSGGSGGSMGMCYRKCRGGRRWCYQKCGGSGGSGGSGGS
modifications: Alexa594 label in the imaging experiment (site not stated)
  binding: binds
